# Results from one PubChem assay

The results are deposited in PubChem (AID1053133; Broad Institute, 2014).

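Vaccinia-infected cells with a two-color viral stage reporter; Venus fluorescence read on a plate reader; the cell line is not named here; timing not stated here. The test concentration is not given here. Percent change in Venus reporter signal; lower (more negative) values mean stronger inhibition of that viral stage.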

Values are in %. How 0% and 100% were set is not given here. Common to all entries: measured here: Venus reporter, other viral stage. Part of the compounds only, not a random draw; the main read-out is not listed here.

compound	activity change (Venus) (%)
CC(=O)N1[C@H](CNC(=O)CN(C)C)[C@@H](c2ccc(C3=CCCCC3)cc2)[C@@H]1CO	-32.04
CC(C)NC(=O)N1CCCCN2[C@@H](CO)[C@H](c3ccc(C#Cc4ccccc4)cc3)[C@@H]2C1	-62.99
C[C@H]1CCCCO[C@H](CN(C)S(=O)(=O)c2ccc(Cl)cc2)[C@@H](C)CN([C@@H](C)CO)C(=O)c2cc(NC(=O)Nc3ccc(F)cc3)ccc2O1	-1.719
CN(C)CC(=O)N1CCCCN2[C@H](C1)[C@@H](c1ccc(/C=C/c3ccccc3)cc1)[C@@H]2CO	-80.55
C[C@H](O)C#Cc1cnc2c(c1)C(=O)N([C@H](C)CO)C[C@@H](C)[C@@H](CN(C)Cc1ccc(-c3ccccc3)cc1)O2	-37.78
C[C@@H]1CN([C@@H](C)CO)C(=O)c2cc(C#Cc3ccc(F)cc3)cnc2O[C@H]1CN(C)C(=O)c1ccccc1F	-40.03
O=C(Nc1ccccc1F)N1CC(=O)N2[C@H](CO)[C@H](c3ccc(C#Cc4ccc(F)cc4)cc3)[C@H]2C1	-33.44
CO[C@@H]1CN(C)C(=O)c2ccc(NC(=O)c3nc4ccccc4s3)cc2OC[C@@H](C)N(Cc2ccncc2)C[C@@H]1C	-38.04
COc1ccc(S(=O)(=O)N(C)C[C@H]2OCc3ccccc3-c3c(n(C)c4ccccc34)C(=O)N([C@H](C)CO)C[C@H]2C)cc1	-51.62
C[C@@H]1CN([C@H](C)CO)C(=O)c2cc(NC(=O)CCC(F)(F)F)ccc2O[C@H]1CN(C)Cc1ccc(Oc2ccccc2)cc1	-29.51
C[C@@H]1CN([C@H](C)CO)C(=O)c2cc(NS(=O)(=O)c3ccccc3)ccc2O[C@@H](C)CCCCO[C@H]1CN(C)Cc1ccc(C(F)(F)F)cc1	-66.99
C[C@@H]1CN([C@@H](C)CO)C(=O)c2cc(NC(=O)Cc3ccccc3)ccc2O[C@@H]1CN(C)Cc1ccc(Cl)c(Cl)c1	-60.9
C[C@@H]1CN([C@@H](C)CO)C(=O)c2c(c3ccccc3n2C)-c2ccccc2CO[C@H]1CN(C)S(=O)(=O)Cc1ccccc1	-51.54
CC(C)CC#Cc1ccc2c(c1)O[C@H](CN(C)Cc1ccncc1)[C@H](C)CN([C@@H](C)CO)S2(=O)=O	-41.5
CC(C)(C)[S@](=O)N1Cc2cc(C(=O)N3CCCCC3)nc(-c3cccc(-c4ccccc4F)c3)c2[C@@H]1CCO	-5.001
C[C@H]1CN([C@@H](C)CO)C(=O)Cc2cc(NC(=O)c3ccncc3)ccc2O[C@@H]1CN(C)CC1CCCCC1	-38.97
C[C@H](CO)N1C[C@H](C)[C@H](CN(C)C(=O)NC2CCCCC2)Oc2c(NC(=O)Nc3ccc(F)cc3)cccc2C1=O	-72.6
C[C@H](CO)N1C[C@H](C)[C@@H](CN(C)Cc2ccc(Cl)c(Cl)c2)OCc2ccccc2-c2ccccc2C1=O	-51.82
C[C@@H]1CN([C@@H](C)CO)S(=O)(=O)c2ccc(C#CC3CCCCC3)cc2O[C@@H]1CN(C)C(=O)Cc1ccncc1	-54.57
COc1ccc(-c2ccc3c(c2)[C@@H]2[C@@H](CCN2C(=O)C2CCCCC2)[C@H](CO)N3C)cc1	-69.27
C[C@@H]1CN([C@H](C)CO)S(=O)(=O)c2ccc(/C=C/c3ccccc3)cc2O[C@@H]1CN(C)C(=O)NC1CCCC1	-49.05
C[C@@H]1CN([C@H](C)CO)C(=O)c2cc(NS(=O)(=O)c3ccccc3)ccc2O[C@@H](C)CCCCO[C@@H]1CN(C)Cc1ccccc1	-59.02
C[C@H](CO)N1C[C@H](C)[C@H](CN(C)Cc2ccc(C(F)(F)F)cc2)OCCCC[C@H](C)Oc2ccc(NS(=O)(=O)c3ccc(Cl)cc3)cc2C1=O	-72.06
CCCN(C)C[C@H]1Oc2cc(C#CCC(C)C)ccc2S(=O)(=O)N([C@@H](C)CO)C[C@H]1C	-40.09
CC(C)C#Cc1ccc([C@H]2[C@@H](CO)N3CCCCN(C(=O)Nc4ccccc4)C[C@H]23)cc1	-58.68
COc1ccc(S(=O)(=O)Nc2ccc3c(c2)C(=O)N([C@@H](C)CO)C[C@H](C)[C@@H](CN(C)C(=O)C2CCCCC2)OCCCC[C@@H](C)O3)cc1	-58.61
C[C@H](CO)N1C[C@H](C)[C@@H](CN(C)C(=O)Nc2cccc3ccccc23)OCCCC[C@H](C)Oc2ccc(NC(=O)c3ccncc3)cc2C1=O	-18.63
Cc1cccc(-c2ccc([C@@H]3[C@@H](CO)N4C(=O)CN(C(=O)c5ccc6c(c5)OCO6)C[C@H]34)cc2)c1	-37.61
CC(C)C#Cc1ccc2c(c1)O[C@H](CN(C)C(=O)CC1CC1)[C@@H](C)CN([C@@H](C)CO)S2(=O)=O	-32.74
COc1ccc(CN(C)C[C@H]2OCCCC[C@@H](C)Oc3ccc(NS(=O)(=O)c4ccc(Cl)cc4)cc3C(=O)N([C@H](C)CO)C[C@H]2C)cc1	-66.15
C[C@H](CO)N1C[C@H](C)[C@@H](CN(C)S(=O)(=O)c2cn(C)cn2)Oc2cc(C#Cc3cccc(F)c3)ccc2S1(=O)=O	-39
CC(C)NC(=O)N1[C@@H](C#N)[C@H](c2ccc(-c3ccc(F)cc3)cc2)[C@@H]1CO	-37.53
COc1ccc(CNC(=O)N(C)C[C@H]2OCc3ccccc3-c3c(n(C)c4ccccc34)C(=O)N([C@H](C)CO)C[C@H]2C)cc1	-31.83
CC(C)CC#Cc1ccc([C@@H]2[C@@H](CO)N3C(=O)CN(C(=O)Nc4ccc(F)cc4)C[C@H]23)cc1	-51.16
COc1cccc(CN2C[C@@H]3N[C@H](C2)C3c2ccc(-c3ccncc3)cc2)c1 (some centres not stated)	-45.88
CCCC#Cc1ccc2c(c1)O[C@H](CN(C)C(=O)Nc1ccccc1F)[C@H](C)CN([C@H](C)CO)S2(=O)=O	-44.53
Cc1cc(C(=O)Nc2ccc3c(c2)C(=O)N(C)[C@H]2CC[C@H](CC(=O)NCc4ccc(-c5ccccc5)cc4)O[C@@H]2CO3)no1	-24.51
O=C(c1ccc2c(c1)OCO2)N1CCCCN2[C@H](CO)[C@H](c3ccc(-c4ccccc4)cc3)[C@H]2C1	-51.17
C[C@H](CO)N1C[C@H](C)[C@H](CN(C)Cc2ccccc2)Oc2ncc(/C=C/c3ccccc3)cc2C1=O	-33.19
O=S(=O)(N[C@H]1CC[C@@H](CCn2cc(-c3ccccc3F)nn2)O[C@@H]1CO)c1ccc(Cl)cc1	-42.78
COc1ccc(CN(C)C[C@H]2OCCCC[C@H](C)Oc3ccc(NS(=O)(=O)c4ccc(Cl)cc4)cc3C(=O)N([C@@H](C)CO)C[C@H]2C)cc1	-45.56
C[C@H]1CN([C@@H](C)CO)C(=O)c2cccc(NC(=O)c3nc4ccccc4s3)c2O[C@@H]1CN(C)CC1CCCCC1	-41.94

The first 2 entries again:

compound,activity change (Venus) (%)
CC(=O)N1[C@H](CNC(=O)CN(C)C)[C@@H](c2ccc(C3=CCCCC3)cc2)[C@@H]1CO,-32.04
CC(C)NC(=O)N1CCCCN2[C@@H](CO)[C@H](c3ccc(C#Cc4ccccc4)cc3)[C@@H]2C1,-62.99